Data as given in article PMC11763059, “GENI as an AMPK Activator Binds α and γ Subunits and Improves the Memory Dysfunction of Alzheimer’s Disease Mouse Models via Autophagy and Neuroprotection” (Antioxidants, 2025).

Tested on: D-gal-induced AD mice
Assay: Immunohistochemistry of brain in D-gal-induced AD mice
Type: in vivo
Conditions: compared with the D-gal group
Procedure: Each group comprised 10 mice. […] Dosing lasted for 10 weeks. […] The mice were sacrificed after 10 weeks of administration.
Firstly, the three mice of each group were subjected to heart perfusion at the end of the animal experiment, and the whole brain was removed and placed in 15 mL of 4% paraformaldehyde and stored at 4 °C for 24 h. Secondly, we changed 4% paraformaldehyde into 15% sucrose solution and stored the solution at 4 °C for 24 h. We then changed the solution to 30% sucrose solution to dehydrate for 2 days. Thirdly, the mouse brain tissue was embedded in a cryo-embedding medium, and about 80 slices with a thickness of 20 μm were cut in the hippocampus using a cryostat (Thermal Fisher, Shanghai, China). The sections of mice in each group were immunohistochemically stained with primary antibodies, such as neuronal nuclear anti gen (NeuN), ionized calcium-binding adapter molecule 1 (Iba-1), inducible nitric oxide synthase (iNOS, pro-inflammatory factors), synaptophysin (Syp), and glial fibrillary acidic protein (GFAP), and secondary antibody. The product number and usage ratios of primary and secondary antibodies are detailed in Supplementary Table S4. Finally, the sections were observed under an upright two-photon confocal microscope (Olympus BX61, Tokyo, Japan) and recorded by a camera. The pictures were digitized with ImageJ software V1.8.0.112 (National Institutes of Health, Bethesda, MD, USA).

[1] = DON 3 mg/kg, GENI 12.5, 25, 50 mg/kg groups

SMILES: COc1cc2c(cc1OC)C(=O)C(CC1CCN(Cc3ccccc3)CC1)C2 (centres unmarked) [DON, donepezil, reference compound]
- activation of astrocytes (GFAP) in the cerebral cortex: decreased
- activation of microglia (Iba-1) in the cerebral cortex: decreased
- expression of iNOS in the cerebral cortex: decreased
- Syp intensity in the cerebral cortex [1]: significantly increased
- mature neurons (NeuN) in the cerebral cortex and hippocampus [1]: significantly increased
